Source: ChEMBL document CHEMBL4325856, “Synthesis of cinnamic amide derivatives and their anti-melanogenic effect in α-MSH-stimulated B16F10 melanoma cells” (Eur J Med Chem, 2019)
Active and inactive are the calls of the source. The rule behind the calls is not given here.

Biological target: T1, Tyrosinase (Agaricus bisporus) (UniProt O42713)
T1 sequence (whole entry): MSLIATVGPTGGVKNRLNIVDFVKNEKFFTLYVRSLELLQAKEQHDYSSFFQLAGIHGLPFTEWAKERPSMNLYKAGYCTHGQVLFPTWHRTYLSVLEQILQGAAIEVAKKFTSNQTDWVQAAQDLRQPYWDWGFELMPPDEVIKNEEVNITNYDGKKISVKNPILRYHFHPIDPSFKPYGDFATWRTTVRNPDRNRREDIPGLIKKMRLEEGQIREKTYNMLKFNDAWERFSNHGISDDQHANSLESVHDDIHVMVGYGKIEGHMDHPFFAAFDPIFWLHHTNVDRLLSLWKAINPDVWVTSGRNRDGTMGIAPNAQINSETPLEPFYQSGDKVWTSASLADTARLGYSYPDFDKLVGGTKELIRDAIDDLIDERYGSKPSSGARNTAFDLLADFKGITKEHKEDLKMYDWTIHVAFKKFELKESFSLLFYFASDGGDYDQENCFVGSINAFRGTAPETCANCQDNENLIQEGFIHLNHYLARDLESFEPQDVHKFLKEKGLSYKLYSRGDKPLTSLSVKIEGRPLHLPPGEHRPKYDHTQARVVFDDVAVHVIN
Conditions: at 25 µM

In the case of `O=C(/C=C/c1ccc(O)cc1)Nc1ccccc1`, the inhibition is reported as “inactive”.
